PubChem BioAssay AID434947 (Broad Institute, 2010)
About 15 (0.7%) of roughly 2,200 compounds were called active.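 The calls were made as follows: active = fitted half-maximal concentration for loss of luminescence signal no more than a set limit of log units above the top tested concentration; inconclusive = flat fit with 30 to 70% signal loss, or invalid fit; inactive = half-maximal concentration above that set limit.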 The list shows a part of the results.

Experiment: ADP-Glo luciferase signal interference – biochemical, luminescence, cell-free, homogeneous, artefact control for GSK3beta inhibitor project, dose response (AID 434947);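 also: kinase-free counter screen of ADP-Glo detection reagents for GSK3beta hits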
Settings: Cell-free ADP-Glo reagents, 5 uM ADP

EC50, inactive:
COc1ccc(C(=O)c2sc(Nc3ccc(NC(C)=O)cc3)nc2C)cc1 > 30 µM
COC(=O)C1=CN(Cc2ccc(OC)c(OC)c2)C=C(C(=O)OC)C1c1ccccc1F > 30 µM
CC1=C(C(=O)OCC2CCCO2)C(c2ccsc2)C2=C(CC(C)(C)CC2=O)N1 (centres undefined) > 30 µM
O=C(CN1C(=O)CCC1=O)Nc1ccc(Cc2ccc(NC(=O)CN3C(=O)CCC3=O)cc2)cc1 > 30 µM
COc1ccc(-c2nc(-c3ccccc3)nc(Cl)c2C#N)cc1 > 30 µM
O=C1NCCCc2c1oc1ccc(O)cc21 > 30 µM
CCc1nc(SCC(=O)Nc2ccc(Br)cn2)n[nH]1 > 30 µM
O=C(Nc1ccc(Cl)cc1)Nc1ccccn1 > 30 µM
Nc1nonc1-n1nnc(C(=O)N/N=C/c2ccc(O)cc2)c1CN1CCCCCC1 > 30 µM
O=C(COc1ccc2ccccc2c1)Nc1cccc2c1C(=O)NC2=O > 30 µM
COCCNc1nc(N)c([N+](=O)[O-])c(NCCO)n1 > 30 µM
Cc1ccccc1CSc1nc2n(n1)C(c1cccs1)C1=C(CCCC1=O)N2 (centres undefined) > 30 µM
CSc1nc(SCC(N)=O)c2c3c(sc2n1)CN(C)CC3 > 30 µM
O=C(CN(Cc1ccccc1)C(=O)CCC(=O)Nc1ccccn1)NCc1ccc(F)cc1 > 30 µM
CCCN(CCC)Cc1c(C(=O)N/N=C/c2ccco2)nnn1-c1nonc1N > 30 µM
CCOC(=O)c1nnn(-c2nonc2N)c1CSc1nnc(N)s1 > 30 µM
CC1(C)CC(CC(=O)NC(=S)Nc2ccc([N+](=O)[O-])cc2)C(=O)O1 (centres undefined) > 30 µM
CN(C)Cc1c(O)ccc2c(-c3ccccc3)cc(=O)oc12 > 30 µM
Cc1ccc2nc3c(cc2c1)c(NC(=O)C1CCCO1)nn3CC(C)C (centres undefined) > 30 µM
Cc1ccc(S(=O)(=O)CC(=O)c2cc3cccc(C)c3oc2=O)cc1 > 30 µM
COc1cccc2cc(C(=O)OCc3ccccc3)c(=O)oc12 > 30 µM
O=C(CN1C(=O)c2ccccc2C1=O)Nc1ccccc1F > 30 µM
CC1(C)CC(=O)C=C(Nc2ccc(Br)cn2)C1 > 30 µM
COc1cc(/C=C(\C#N)C(=O)c2c[nH]c3ccccc23)cc(OC)c1O > 30 µM
Cc1ccc(-n2c(C)nc3c(cnn3-c3ccc(F)cc3)c2=O)cc1C > 30 µM
CCN(CC)CCNC(=O)C(=O)Nc1ccc2c(c1)N(S(=O)(=O)c1cccs1)CCC2 > 30 µM
CCCCc1cc(=O)oc2cc(C)cc(OCC(=O)O)c12 > 30 µM
Nc1ccc(O)c2c(=O)cc(-c3ccccc3Cl)oc12 > 30 µM
CCCOc1cc(C)nc(-c2ccccc2O)n1 > 30 µM
CCc1cc(=O)oc2cc(OC(C)=O)cc(OC(C)=O)c12 > 30 µM
Cc1ccc(-c2cc(C(=O)NCCc3ccccn3)c3ccccc3n2)c(C)c1 > 30 µM
CCOC(=O)c1cnc2ccc(C(=O)OC)cc2c1Nc1ccc2c(c1)OCCO2 > 30 µM
O=C(c1ccc(Cl)cc1)c1coc2ccc(O)cc12 > 30 µM
CCOC(=O)C1=C(C)Nc2ncnn2C1c1cccnc1 (centres undefined) > 30 µM
COc1ccc(Nc2nc(-c3ccncc3)nc3ccccc23)cc1 > 30 µM
O/N=C/c1cn(-c2ccccc2)nc1-c1ccccc1 > 30 µM
CCOC(=O)C1=C(C(F)(F)F)Nc2ncnn2C1c1cc(OC)ccc1OC (centres undefined) > 30 µM
CNC(=O)NC(=O)CSc1nc2ccccc2n1CCOC > 30 µM
COc1ccc2oc3cc(C)[n+]([O-])c(-c4ccc(Cl)cc4)c3c2c1 > 30 µM
Cc1ccc(-c2nn(-c3ccccc3)cc2CNCc2ccccc2)cc1 > 30 µM
CN(C)CCc1cc2c(c3c1ccc1ccccc13)OCO2 > 30 µM
Cc1ccc(/C=N\NC(=O)COc2ccc(C)cc2[N+](=O)[O-])cc1 > 30 µM
CCC1(C)NC(=O)N(CC(=O)Nc2sc3c(c2C(N)=O)CCC3)C1=O (centres undefined) > 30 µM
Cc1csc2c(=O)n(CCO)c(=O)[nH]c12 > 30 µM
C=CCNC(=S)N/N=C/c1cn(-c2ccccc2)nc1-c1ccc(OC)cc1 > 30 µM
C=CCNc1nc(N)c([N+](=O)[O-])c(NC2CCCCC2)n1 > 35 µM
Nn1c(SCc2cccc(Br)c2)nnc1-c1ccncc1 > 30 µM
CCCNC(=O)c1ccc(Cl)cc1Cl > 30 µM
COc1ccc(CN(CC(=O)NCc2ccco2)C(=O)CCC(=O)Nc2ccccn2)cc1 > 30 µM
Cn1nc(-c2ccccn2)nc2c(=O)n(C)c(=O)nc1-2 > 30 µM
COc1ccc(C(=O)c2sc(Nc3ccccc3)nc2C)cc1 > 30 µM
O=C(Nc1ccnn1C1CCN(Cc2cccc(OCCO)c2)CC1)C1CCCC1 > 30 µM
N#Cc1c(-c2cccs2)cc(-c2cccnc2)nc1N > 30 µM
Fc1ccc(CSc2nnc(-c3ccco3)o2)cc1 > 30 µM
COc1ccc(NC(=O)c2ccc(-c3ccc(OC)cc3)s2)cc1 > 30 µM
Cc1ccc(C)c(S(=O)(=O)NCc2ccc(C(=O)N3CC(C)OC(C)C3)cc2)c1 (centres undefined) > 30 µM
c1ccc(Nc2ncnc3[nH]ncc23)cc1 > 30 µM
CCN1CCN(CCNC(=O)c2ccc3c(c2)NC(=O)/C(=C\c2ccc(OC)c(OC)c2)S3)CC1 > 30 µM
COc1ccc(CNC(=O)CN(Cc2ccc(OC)cc2)C(=O)CCC(=O)Nc2ccccn2)cc1 > 30 µM
O=C(Nc1ccccn1)Nc1cccs1 > 30 µM
CCN(CC)Cc1c(O)ccc2c(=O)c(-c3ccc4c(c3)OCCO4)coc12 > 10 µM
O=S(=O)(NCCC1CC1(Cl)Cl)c1ccc(Cl)cc1 (centres undefined) > 30 µM
CC1(C)CC(=O)C=C(Nc2ccc3c(c2)OCCO3)C1 > 30 µM
O=C(NC(=S)Nc1cccc2c(O)cccc12)c1ccco1 > 30 µM
c1cncc(-c2nc(NCc3ccc4c(c3)OCO4)c3ccccc3n2)c1 > 30 µM
CCSc1ccc2nnc(-c3cccs3)n2n1 > 30 µM
COc1ccc2occ(C(=O)c3ccc(N)cc3)c2c1 > 30 µM
NS(=O)(=O)c1ccc(CCNC(=O)C(=O)c2cn(CC(=O)N3CCCC3)c3ccccc23)cc1 > 30 µM
COc1cc2[nH]c(=O)n3nc(-c4ccccc4)nc3c2cc1OC > 30 µM
Brc1ccc(CSc2nnc(-c3cccnc3)o2)cc1 > 30 µM
CCn1c(SCC(=O)Nc2nccs2)nnc1C1CC1 > 30 µM
COC(=O)c1nnn(-c2nonc2N)c1-c1cccs1 > 30 µM
NS(=O)(=O)c1ccc(N=Nc2c(O)[nH]c3ccc(Br)cc23)cc1 > 30 µM
C/C(=N\O)c1ncc(C(F)(F)F)cc1Cl > 30 µM
CCCCC(CC)C(=O)Nc1ncc([N+](=O)[O-])s1 (centres undefined) > 30 µM
CC(C)CCn1c(CN2CCN(c3cccc(Cl)c3)CC2)nc2c1c(=O)n(C)c(=O)n2C > 30 µM
CCN(CC)CCOC(=O)c1ccc(NC(=S)NC(=O)/C=C/c2ccco2)cc1 > 30 µM
O=C1CC(c2c[nH]c3ccccc23)C(=O)N1c1ccccc1 (centres undefined) > 30 µM
c1ccc(-c2nc(NCc3cccnc3)c3ccccc3n2)cc1 > 0.42 µM
C[C@H](C(O)c1ccccc1)N(C)C(=O)CN (some centres undefined) > 30 µM
Cc1ccc2c(CN3CCN(Cc4ccccc4)CC3)cc(=O)oc2c1C > 30 µM
O=C(CN(Cc1cccs1)C(=O)CCC(=O)Nc1ccccn1)NCc1ccccc1 > 30 µM
COc1ccc(CN(CC(=O)NCc2ccccc2)C(=O)CCC(=O)Nc2cc(C)ccn2)cc1 > 30 µM
COc1ccc2nc(C)cc(N3CCOCC3)c2c1 > 30 µM
Nc1nc(Nc2ccccc2F)nc(NCCO)c1[N+](=O)[O-] > 30 µM
N#Cc1c(-c2ccccc2)nc(-c2cccnc2)[nH]c1=O > 30 µM
CC1(C)CC(=O)C=C(Nc2ccccn2)C1 > 30 µM
Cc1ccc(C(=O)COC(=O)c2ccc(O)cc2)cc1 > 30 µM
COc1cccc(C(=O)Nc2nc3ccc(S(C)(=O)=O)cc3s2)c1 > 30 µM
O=c1c2c3c(sc2n2c(=S)[nH]nc2n1-c1ccccc1)CCC3 > 30 µM
CCCn1c(SCC(=O)Nc2ccccc2OC)nnc1-c1ccco1 > 30 µM
CCN1CCN(c2cc(C)c3cc(NC(=O)c4cc(OC)cc(OC)c4)ccc3n2)CC1 > 30 µM
C=CCNc1nc(N)c([N+](=O)[O-])c(Nc2cccc(Cl)c2)n1 > 30 µM
CC(=O)Nc1ccc(S(=O)(=O)N(Cc2cccnc2)Cc2cc3ccccc3[nH]c2=O)cc1 > 30 µM

Filtered by structure: the compounds so far containing a halogen.
EC50, inactive:
COC(=O)C1=CN(Cc2ccc(OC)c(OC)c2)C=C(C(=O)OC)C1c1ccccc1F > 30 µM
COc1ccc(-c2nc(-c3ccccc3)nc(Cl)c2C#N)cc1 > 30 µM
CCc1nc(SCC(=O)Nc2ccc(Br)cn2)n[nH]1 > 30 µM
O=C(Nc1ccc(Cl)cc1)Nc1ccccn1 > 30 µM
O=C(CN(Cc1ccccc1)C(=O)CCC(=O)Nc1ccccn1)NCc1ccc(F)cc1 > 30 µM
O=C(CN1C(=O)c2ccccc2C1=O)Nc1ccccc1F > 30 µM
CC1(C)CC(=O)C=C(Nc2ccc(Br)cn2)C1 > 30 µM
Cc1ccc(-n2c(C)nc3c(cnn3-c3ccc(F)cc3)c2=O)cc1C > 30 µM
Nc1ccc(O)c2c(=O)cc(-c3ccccc3Cl)oc12 > 30 µM
O=C(c1ccc(Cl)cc1)c1coc2ccc(O)cc12 > 30 µM
CCOC(=O)C1=C(C(F)(F)F)Nc2ncnn2C1c1cc(OC)ccc1OC (centres undefined) > 30 µM
COc1ccc2oc3cc(C)[n+]([O-])c(-c4ccc(Cl)cc4)c3c2c1 > 30 µM
Nn1c(SCc2cccc(Br)c2)nnc1-c1ccncc1 > 30 µM
CCCNC(=O)c1ccc(Cl)cc1Cl > 30 µM
Fc1ccc(CSc2nnc(-c3ccco3)o2)cc1 > 30 µM
O=S(=O)(NCCC1CC1(Cl)Cl)c1ccc(Cl)cc1 (centres undefined) > 30 µM
Brc1ccc(CSc2nnc(-c3cccnc3)o2)cc1 > 30 µM
NS(=O)(=O)c1ccc(N=Nc2c(O)[nH]c3ccc(Br)cc23)cc1 > 30 µM
C/C(=N\O)c1ncc(C(F)(F)F)cc1Cl > 30 µM
CC(C)CCn1c(CN2CCN(c3cccc(Cl)c3)CC2)nc2c1c(=O)n(C)c(=O)n2C > 30 µM
Nc1nc(Nc2ccccc2F)nc(NCCO)c1[N+](=O)[O-] > 30 µM
C=CCNc1nc(N)c([N+](=O)[O-])c(Nc2cccc(Cl)c2)n1 > 30 µM
